This passage reports binding results from patent US6844168.

Chains of the proteins cited; added tags and fusions are not shown. Lines headed by an entry give the natural chain unless they say otherwise; changes in a name come on top. Residues count along the entry.
UniProt P09038, residues 134-288: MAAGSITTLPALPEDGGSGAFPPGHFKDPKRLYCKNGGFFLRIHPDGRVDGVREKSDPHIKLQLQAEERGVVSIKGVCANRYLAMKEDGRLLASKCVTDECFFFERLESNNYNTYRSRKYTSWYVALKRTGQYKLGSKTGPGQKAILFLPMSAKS
UniProt P11362: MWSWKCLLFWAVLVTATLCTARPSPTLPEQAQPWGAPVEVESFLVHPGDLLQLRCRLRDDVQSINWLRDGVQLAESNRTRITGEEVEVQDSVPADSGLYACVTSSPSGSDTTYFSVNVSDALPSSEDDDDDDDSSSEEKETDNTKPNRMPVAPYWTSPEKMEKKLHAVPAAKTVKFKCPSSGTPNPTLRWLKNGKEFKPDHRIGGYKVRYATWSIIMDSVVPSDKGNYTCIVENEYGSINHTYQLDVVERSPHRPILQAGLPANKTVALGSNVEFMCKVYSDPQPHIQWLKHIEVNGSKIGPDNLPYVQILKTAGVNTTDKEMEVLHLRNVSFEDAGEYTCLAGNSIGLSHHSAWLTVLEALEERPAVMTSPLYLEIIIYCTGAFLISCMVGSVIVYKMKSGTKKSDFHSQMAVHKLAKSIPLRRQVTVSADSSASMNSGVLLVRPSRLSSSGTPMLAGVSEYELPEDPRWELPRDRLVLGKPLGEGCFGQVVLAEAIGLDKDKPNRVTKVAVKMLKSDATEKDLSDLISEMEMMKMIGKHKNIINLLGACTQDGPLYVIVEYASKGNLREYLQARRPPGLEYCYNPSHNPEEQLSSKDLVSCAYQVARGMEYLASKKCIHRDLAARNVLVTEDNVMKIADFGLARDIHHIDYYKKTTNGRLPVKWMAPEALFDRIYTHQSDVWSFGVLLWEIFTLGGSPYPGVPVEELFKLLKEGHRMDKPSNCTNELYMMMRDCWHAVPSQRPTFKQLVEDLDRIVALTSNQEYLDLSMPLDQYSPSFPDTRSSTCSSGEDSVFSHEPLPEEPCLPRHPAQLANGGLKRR

This experiment concerns the target Human basic FGF (recombinant, produced in yeast) (human) (UniProt P09038). In words: radioreceptor assay on BHK cells with 125I-basic FGF.

These are yes or no findings as the source states them, for the method shown. Some results given as binding are weak or reduced against the parent protein; the word gives no strength.

As for “EC-FGF receptor (extracellular region of the human FGF receptor flg 5, amino acids 1-374, expressed in baculovirus-infected Sf9 cells) (from UniProt P11362 22-376)”, the binding result is “binds”.
